Experimental data as given in PubChem BioAssay AID2685 (National Center for Advancing Translational Sciences (NCATS), 2010).
The other results are listed elsewhere or left out. Shown are side measurements of this screen, not its main read-out; they come without a call. The list favours compounds with an active or inconclusive main result. The note in brackets gives the kind of curve behind each potency; many fits are weak.

Test: qHTS Assay for Lipid Storage Modulators in Drosophila S3 Cells;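 on cell number change: cells counted by Cell Tracker Red CMTPX staining in the red channel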
Details: BODIPY lipid droplet fluorescence, 18-24 h; for cell number change: measured here: cell count max response, cells fed with added oleic acid
Summary of the method: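 Drosophila S3 cells got compounds at several concentrations plus oleic acid (400 uM solution). Laser-scanning cytometry with 488 nm excitation read lipid droplets at 500-530 nm and cells at 575-640 nm. Percent activity was relative to 20 uM Triacsin C.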

[1] = measured here: cell number channel AC50, cells fed with added oleic acid
[2] = measured here: lipid fluorescence (Fed channel) AC50, cells fed with added oleic acid

| Compound | AC50 [1] | AC50 [2] | cell number change [%] |
| --- | --- | --- | --- |
| Cc1ccc(C)c(NS(=O)(=O)c2ccc(OCC(=O)NCc3ccco3)cc2)c1 | 6.51 µM [rising, single point] | 6.51 µM [rising, partial curve, poor fit] |  |
| O=C(/C=C/c1ccc([N+](=O)[O-])cc1)OCc1cnc(-c2ccccc2)o1 | 2.31 µM [rising, partial curve, poor fit] | 0.146 µM [rising, full curve, poor fit] | 30.8 |
| O=C(Nc1ccc2c(c1)OCO2)N1CCN(C/C=C/c2ccccc2)CC1 | 4.61 µM [rising, single point] | 3.66 µM [rising, partial curve] |  |
| O=C(c1ccncc1)N1CCN(S(=O)(=O)c2cccc([N+](=O)[O-])c2)CC1 | 6.51 µM [falling, single point] |  | -15.5 |
| COc1ccc(CN(CC(=O)NCc2ccc(F)cc2)C(=O)CCC(=O)Nc2nccs2)cc1 | 20.6 µM [rising, partial curve] | 11.6 µM [falling, single point] | 67 |
| CCCCNC(=S)N(C)/N=C/c1ccc(F)cc1 |  | 0.517 µM [falling, single point] | -11.8 |
| Cc1ccc(S(=O)(=O)C2CCOC2=O)cc1 (configuration not stated) |  | 1.64 µM [rising, partial curve] | 15.3 |
| CC(=O)Nc1cccc(NC(=O)C2CCCN2C(=O)Nc2ccccc2C)c1 (configuration not stated) | 32.6 µM [falling, single point] | 0.00651 µM [falling, full curve, poor fit] | -36.4 |
| COc1ccc(Cn2nnnc2C(c2ccccc2OC)N2CCC(C(N)=O)CC2)cc1 (configuration not stated) |  |  | 5.08 |
| C=CCC1(C(=O)NCCO)CCN(C(=O)OC(C)(C)C)CC1 |  | 1.64 µM [falling, single point] | -17.7 |
| O=C(Cc1cccc2ccccc12)N/N=C/c1ccc(Sc2cccc3cccnc23)o1 |  | 20.6 µM [falling, single point] | -18.6 |
| C=CCN1C(=O)C(Cc2ccc(OC)cc2)S/C1=N\N=C\c1cccs1 (configuration not stated) |  | 2.31 µM [rising, single point] | 2.57 |
| CCOC(=O)c1sc(N(Cc2ccccc2)C(=O)COC(=O)c2ccccc2O)nc1C |  | 4.61 µM [rising, partial curve, poor fit] | 11.4 |
| c1ccc(C2=Nn3c(nnc3-c3ccncc3)SC2)cc1 |  | 0.411 µM [rising, full curve, poor fit] | -3.22 |
| Cc1cccc(-n2ncc3c(NC(C)C)ncnc32)c1 | 4.61 µM [falling, partial curve] |  | -71.2 |
